Assay results taken from the supplement of paper PMC4635364.
Structures can show the parent of a compound that is named as a salt. This is one part of the list. This data set is noisy: repeats of one test often differ as much as different tests do.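 Cells: ReNCell VM human fetal ventral-midbrain neural progenitors, differentiated mitogen-free. Blinded raters compared doublecortin-stained (early neurons) or tyrosine hydroxylase-stained (dopaminergic neurons) images with untreated wells, where 0 means no change. After repeats and both raters were averaged, compounds scoring 2 or above became hits for retesting.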

These molecules were tested on ReNCell VM (assay: dopaminergic neuron differentiation score (TH+ cell fraction vs untreated, manual image score) (score (0 to 3)); higher = more TH+ dopaminergic neuron differentiation). Conditions: library: Spectrum; 2 uM; 4 weeks; BDNF 10 ng/ml + GDNF 10 ng/ml.

Dopaminergic neuron differentiation score, inactive:
O=c1c(O)cc([C@H]2Oc3cc(O)cc(O)c3C[C@H]2O)cc2c([C@H]3Oc4cc(O)cc(O)c4C[C@H]3O)cc(O)c(O)c12 0
CC[C@H]1OC(=O)C[C@@H](O)[C@H](C)[C@@H](O[C@@H]2O[C@H](C)[C@@H](O[C@H]3C[C@@](C)(O)[C@@H](O)[C@H](C)O3)[C@H](N(C)C)[C@H]2O)[C@@H](CC=O)C[C@@H](C)C(=O)/C=C/C(C)=C/[C@@H]1CO[C@@H]1O[C@H](C)[C@@H](O)[C@@H](OC)[C@H]1OC 0
CC(=O)S[C@@H]1CC2=CC(=O)CC[C@]2(C)[C@H]2CC[C@@]3(C)[C@@H](CC[C@@]34CCC(=O)O4)[C@H]12 0
CN(C)CCC(c1ccccc1)c1ccccn1 (configuration not stated) 0
COc1ccc(C(=O)CC(=O)c2ccc(C(C)(C)C)cc2)cc1 0
NS(=O)(=O)c1ccc(C(=O)O)cc1 0
Cc1nc(C)c(Cl)c(O)c1Cl 0
CCCCCCCCCCCCCCCC[N+](C)(C)C 0
CC(C)CCCC(C)C1CCC2C3CCC4CCCCC4(C)C3CCC12C (configuration not stated) 0
S=P(N1CC1)(N1CC1)N1CC1 0
Clc1ccc(CSC(Cn2ccnc2)c2ccc(Cl)cc2Cl)cc1 (configuration not stated) 0
CCOc1cc(NC(C)=O)ccc1C(=O)OC 0
C=C1CCC(C2CC(=O)OC2=O)C(=O)CCC2C1CC2(C)C (configuration not stated) 0
CN1CCC[C@@H]1Cc1c[nH]c2ccc(CCS(=O)(=O)c3ccccc3)cc12 0
O=C(O)CCCCCCCCCCCC[C@@H]1C=CCC1 0

Two records drawn at random from those above, as already listed:
Dopaminergic neuron differentiation score, inactive:
CC[C@H]1OC(=O)C[C@@H](O)[C@H](C)[C@@H](O[C@@H]2O[C@H](C)[C@@H](O[C@H]3C[C@@](C)(O)[C@@H](O)[C@H](C)O3)[C@H](N(C)C)[C@H]2O)[C@@H](CC=O)C[C@@H](C)C(=O)/C=C/C(C)=C/[C@@H]1CO[C@@H]1O[C@H](C)[C@@H](O)[C@@H](OC)[C@H]1OC 0
Clc1ccc(CSC(Cn2ccnc2)c2ccc(Cl)cc2Cl)cc1 (configuration not stated) 0

Same assay, conditions: library: Tocriscreen; 2 uM; 4 weeks; BDNF 10 ng/ml + GDNF 10 ng/ml

Dopaminergic neuron differentiation score, inactive:
O=S(=O)(c1cccc2c(Cl)cccc12)N1CCCNCC1 [ML 9 hydrochloride] 0
N#Cc1ccc(NCCNCC(=O)N2CCC[C@H]2C#N)nc1 [NVP DPP 728 dihydrochloride] 0
O=C(COc1cccc2c(=O)[nH]ccc12)c1ccccc1 1
CCc1cc(C(C)=O)c(O)cc1OCCCCCC(C)(C)c1nn[nH]n1 0
O=C(Cc1ccccc1)Nc1nc2ccc(Cl)cc2c2nc(-c3ccco3)nn12 0
O=C(NCCCN1CCC2(CC1)OCc1ccccc12)[C@H]1CCCN1Cc1ccccc1 0
Cc1cccc(C(=O)NCN2CCN(c3ccccc3C#N)CC2)c1 0
